Data taken from patent US10899639B2, “Composition and method for inhibiting microbial adhesion on surfaces” (SOLENIS TECHNOLOGIES, L.P., priority 2017, dated 2021).

Assay: foaming potential, shaken capped graduated cylinder test
Type: physicochemical
Conditions: 100 mL test solution in 250 mL cylinder, 30 ppm active LAS

Substance: sodium dodecylbenzene sulfonate [Biosoft D-40]
- volume of the foam (0 min after 40 inversions): 140
- volume of the foam (1 min after 40 inversions): 137
- volume of the foam (3 min after 40 inversions): 136
